Reference: the supplement of paper PMC4604168 (melanoma cell lines)
Some of the results follow. Many values rest on one well or one pass, so single values are uncertain.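 Imaging used 1,536-well plates; nuclei positive for cleaved PARP by antibody were divided by total DNA-stained nuclei to yield the apoptosis fraction. Doses for screening kept most cells viable, and cell lines differ markedly in resting and induced cleaved-PARP levels.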

system: MeWo; test: cleaved PARP positive nuclei fraction relative to DMSO control; melanoma cells; higher = more apoptosis; settings: library dose: low library concentration; 72 h

SMILES | cleaved PARP positive nuclei fraction [%]
CC(=O)O[C@@]12CO[C@@H]1C[C@H](O)[C@@]1(C)C(=O)[C@H](O)C3=C(C)[C@@H](OC(=O)[C@H](O)[C@@H](NC(=O)OC(C)(C)C)c4ccccc4)C[C@@](O)([C@@H](OC(=O)c4ccccc4)[C@H]21)C3(C)C [Docetaxel] + C[C@]1(c2nc3c(C(N)=O)cccc3[nH]2)CCCN1 [Veliparib] (first compound 0.0001 µM, partner dose 1.4 µM) | 385
CCN(CC)CCNC(=O)c1c(C)[nH]c(/C=C2\C(=O)Nc3ccc(F)cc32)c1C [sunitinib] + OCc1c[nH]c2ccccc12 [Indole-3-carbinol] (first compound 0.4 µM, partner dose 0.8 µM) | 86.9
C[C@]1(O)C[C@@H](c2nc(-c3ccc4ccc(-c5ccccc5)nc4c3)c3c(N)nccn32)C1 + CCCS(=O)(=O)Nc1ccc(F)c(C(=O)c2c[nH]c3ncc(Cl)cc23)c1F [PLX4720] (first compound 0.4 µM, partner dose 0.08 µM) | 28.1
Cn1cnc2c(F)c(Nc3ccc(Br)cc3Cl)c(C(=O)NOCCO)cc21 [selumetinib] + C#Cc1cccc(Nc2ncnc3cc(OCCOC)c(OCCOC)cc23)c1 [erlotinib] (first compound 0.015 µM, partner dose 0.8 µM) | 132
Cn1sc(=O)n(Cc2ccccc2)c1=O + OCc1c[nH]c2ccccc12 [Indole-3-carbinol] (first compound 0.4 µM, partner dose 0.8 µM) | 106
Cn1cnc2c(F)c(Nc3ccc(Br)cc3Cl)c(C(=O)NOCCO)cc21 [selumetinib] + C[C@@H](Oc1cc(-c2cnn(C3CCNCC3)c2)cnc1N)c1c(Cl)ccc(F)c1Cl [Crizotinib] (first compound 0.015 µM, partner dose 0.2 µM) | 190
NC(=O)c1ccc(N(C(N)=O)c2c(F)cccc2F)nc1-c1ccc(F)cc1F + Clc1ccc(Nc2nnc(Cc3ccncc3)c3ccccc23)cc1 [vatalanib] (first compound 0.4 µM, partner dose 2 µM) | 68.9
Cn1sc(=O)n(Cc2ccccc2)c1=O + Clc1ccc(Nc2nnc(Cc3ccncc3)c3ccccc23)cc1 [vatalanib] (first compound 0.4 µM, partner dose 2 µM) | 153
COc1ccc(C2=N[C@@H](c3ccc(Cl)cc3)[C@@H](c3ccc(Cl)cc3)N2C(=O)N2CCNC(=O)C2)c(OC(C)C)c1 [Nutlin-3] + CC(=O)c1c(C)c2cnc(Nc3ccc(N4CCNCC4)cn3)nc2n(C2CCCC2)c1=O [palbociclib] (first compound 0.1 µM, partner dose 0.04 µM) | 54
COc1ccc(C2=N[C@@H](c3ccc(Cl)cc3)[C@@H](c3ccc(Cl)cc3)N2C(=O)N2CCNC(=O)C2)c(OC(C)C)c1 [Nutlin-3] + Cn1c(=O)n(-c2ccc(C(C)(C)C#N)cc2)c2c3cc(-c4cnc5ccccc5c4)ccc3ncc21 [NVP-BEZ235] (first compound 0.1 µM, partner dose 0.004 µM) | 92.2
NC(=O)c1ccc(N(C(N)=O)c2c(F)cccc2F)nc1-c1ccc(F)cc1F + C=C(c1ccc(C(=O)O)cc1)c1cc2c(cc1C)C(C)(C)CCC2(C)C [Bexarotene] (first compound 0.4 µM, partner dose 2 µM) | 73.9
Cn1cnc2c(F)c(Nc3ccc(Br)cc3Cl)c(C(=O)NOCCO)cc21 [selumetinib] + Cn1nnc2c(C(N)=O)ncn2c1=O [temozolomide] (first compound 0.015 µM, partner dose 2 µM) | 179
C[C@]1(O)C[C@@H](c2nc(-c3ccc4ccc(-c5ccccc5)nc4c3)c3c(N)nccn32)C1 + CS(=O)(=O)c1ccc(C(=O)Nc2ccc(Cl)c(-c3ccccn3)c2)c(Cl)c1 [vismodegib] (first compound 0.4 µM, partner dose 1 µM) | 143
C[C@]1(O)C[C@@H](c2nc(-c3ccc4ccc(-c5ccccc5)nc4c3)c3c(N)nccn32)C1 + Cc1cc(Nc2cc(N3CCN(C)CC3)nc(/C=C/c3ccccc3)n2)n[nH]1 [ENMD2076] (first compound 0.4 µM, partner dose 0.04 µM) | 57.1
